# Laboratory results taken from PubChem BioAssay AID504467 (National Center for Advancing Translational Sciences (NCATS), 2011).
# The whole screen tested about 330,000 compounds, of which about 7,700 (2.3%) were called active. Inconclusive means that the source gave no clear call. Such entries were picked first, then a sample of the others. The call rests on the fitted dose curve; in most records, active means well fitted inhibition curve with a large enough effect; inconclusive means small, poorly fitted or top-dose-only effect, or effect the other way; inactive means flat fitted curve, though single readings scatter. Potencies beside an inconclusive call are fits to weak or partial responses and may not hold up.
# Test: qHTS screen for small molecules that inhibit ELG1-dependent DNA repair in human embryonic kidney (HEK293T) cells expressing luciferase-tagged ELG1; further: nearly all actives have a fitted effect of over 55% in size
# Conditions: HEK293T ELG1-luciferase reporter, luminescence, 16 h, DNA damage induced by 5-fluorouridine; activity change, negative = inhibition: at 46.1 µM (top of the series)
# Summary of the method: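 5-Fluorouridine DNA damage + compound/DMSO, 2,000 cells/well, 16 h, 37 °C/5% CO2. ONE-Glo, 30 min RT, luminescence. Readout = decrease in reporter signal.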
# On the % scale 0 is the no-effect control and ±100 the full control effect; potency means the concentration at half of the fitted maximal effect.
Compound,Potency,"activity change, negative = inhibition"
CC(=O)NC(CC(=O)Oc1ccc(C)cc1Br)c1ccccc1 (centres undefined),inactive,–
COc1ccc(N(C)C(=O)c2cc3c(s2)-c2ccc(Cl)cc2S(=O)(=O)C3)c(OC)c1,active: 20.6 µM,–
COc1ccccc1NC(=O)C(NC(=O)c1ccc(C)cc1)c1ccccc1 (centres undefined),inactive,–
C/C(=N\NC(=O)c1ccncc1)c1cccc(NC(=O)c2ccc(Cl)s2)c1,"inconclusive: 23.1 µM [activator, single point]",–
Cc1cccc(N=c2oc3cc(O)ccc3cc2C(N)=O)c1,active: 4.61 µM,–
CCC(C)c1ccccc1NC(=O)C(C)NCCN(C)C (centres undefined),"inconclusive: 36.6 µM [activator, partial curve, poor fit]",–
O=C(c1cccc(S(=O)(=O)N2CCCC2)c1)N1CCCc2ccccc21,"inconclusive: 18.3 µM [inhibitor, single point]",–
O=C(OCC(=O)N1CCN(C(=O)c2ccco2)CC1)c1cccc(F)c1,"inconclusive: 13 µM [activator, partial curve, poor fit]",–
COc1ccccc1C1C(C(C)=O)=C(C)N=c2s/c(=C\c3cc(OC)c(OC)c(OC)c3)c(=O)n21 (centres undefined),active: 23.1 µM,–
C[C@H](CO)N1C[C@H](C)[C@@H](CN(C)Cc2ccc(Cl)c(Cl)c2)Oc2c(NC(=O)C3CCOCC3)cccc2C1=O,"inconclusive: 29.1 µM [inhibitor, partial curve, poor fit]",–
CCCc1nc(SCC(=O)N2CCCc3ccccc32)c2c(=O)n(C)c(=O)n(C)c2n1,"inconclusive: 23.1 µM [inhibitor, single point]",–
O=[N+]([O-])c1ccc(-c2c[nH]c(=S)[nH]2)cc1,"inconclusive: 11.6 µM [activator, partial curve, poor fit]",–
O=C(Nc1nnc(-c2cccs2)s1)C1CC1,"inconclusive: 6.51 µM [activator, partial curve]",–
O=C(CN1CCN(S(=O)(=O)c2ccccc2)CC1)Nc1ccc(Cl)c(Cl)c1,"inconclusive: 13 µM [inhibitor, partial curve, poor fit]",–
CCn1cc([N+](=O)[O-])c(=O)c2cc(F)c(N3CCOCC3)cc21,inactive,–
CCN1CCN(C(=O)c2cc3c(OC)c(OC)c(OC)cc3[nH]2)CC1,"inconclusive: 16.4 µM [activator, single point]",–
Nc1nc(C2CCCCC2)cs1,"inconclusive: 23.1 µM [activator, single point]",–
CSc1ccccc1NC(=O)COC(=O)Cc1ccsc1,inactive,–
COC(=O)c1cnn(-c2ccccc2)c1/C=N/NC(=S)Nc1ccccc1,active: 20.6 µM,–
Cc1ccc(C(=O)Nc2ccccc2OC(F)F)cc1,"inconclusive: 18.4 µM [activator, partial curve]",–
N#Cc1c2c(c(NCc3ccco3)n3c1nc1ccccc13)CCC2,–,inconclusive: 40.2% [activator]
CC1CSc2n(-c3cccc(C(F)(F)F)c3)cc(-c3ccccc3)[n+]21 (centres undefined),"inconclusive: 18.3 µM [inhibitor, partial curve, poor fit]",–
Cc1cccc(NC(=S)NC(=O)c2ccc(Br)o2)c1C,"inconclusive: 29.1 µM [activator, single point]",–

Compound,Potency,"activity change, negative = inhibition"
CCN(CC)C(=O)c1[nH]cnc1C(=O)NCc1ccccc1,"inconclusive: 20.6 µM [activator, partial curve]",–
COc1cc(/C=C2/C(=O)ON=C2c2ccccc2)ccc1O,"inconclusive: 8.2 µM [activator, partial curve]",–
COc1ccc(S(=O)(=O)N(C)c2ccc(C(=O)N3CCCCC3)cc2)cc1,"inconclusive: 20.6 µM [inhibitor, single point]",–
CCN(CC(=O)Nc1ccc(NC(C)=O)cc1)C(=O)COc1ccc(C(=O)c2ccccc2)cc1,"inconclusive: 23.1 µM [inhibitor, single point]",–
COC(=O)c1ccccc1NC(=O)CN1CCCCCC1,inactive,–
COc1cc(-c2noc(CCCC(=O)NCc3ccco3)n2)cc(OC)c1OC,"inconclusive: 25.9 µM [inhibitor, partial curve, poor fit]",–
Cc1cccc(N2CCN(C(=O)C3CCN(S(=O)(=O)c4cccnc4)CC3)CC2)c1C,inactive,–
O=[N+]([O-])c1ccc(N2CCN(S(=O)(=O)c3ccccc3)CC2)c2cccnc12,"inconclusive: 18.3 µM [inhibitor, single point]",–
Cc1ccc(Nc2cc(=O)oc3ccccc23)c(C)c1,"inconclusive: 18.4 µM [inhibitor, partial curve]",–
CCOC(=O)NC(=O)COC(=O)CCCSc1nc2ccccc2s1,inactive,–
O=C(COc1cc2oc(=O)cc(-c3ccccc3)c2cc1Cl)NCCN1CCOCC1,inactive,–
Cc1nc2scc(C)n2c(=O)c1S(=O)(=O)N1CCN(c2ccccn2)CC1,"inconclusive: 3.26 µM [activator, partial curve, poor fit]",–
Cc1cccc(C)c1NC(=S)NCc1ccncc1,inactive,–
CCN(CC)P(=O)(Nc1ccc(Br)cc1)c1c(C)nn(CCC#N)c1NC(=O)c1ccc(Cl)cc1 (centres undefined),inactive,–
COCc1cc(C)nc(SCC(=O)Nc2ccc(C)c(C)c2)c1C#N,"inconclusive: 16.4 µM [activator, partial curve]",–
Cc1ccccc1NC(=O)CC1C(=O)Nc2ccccc2N1CC(=O)N(C)C1CCS(=O)(=O)C1 (centres undefined),"inconclusive: 35.5 µM [activator, partial curve, poor fit]",–
Cc1ccccc1-c1cc(C(=O)Nc2sc(C(=O)OC(C)C)c(C)c2C#N)c2ccccc2n1,active: 23.1 µM,–
O=C(COC(=O)c1ccco1)Nc1ccccc1[N+](=O)[O-],inactive,–
COC(=O)CCC(=O)Nc1ccc(N=Nc2ccccc2)cc1,"inconclusive: 29.1 µM [activator, single point]",–
O=C(O)Cc1ccc(NS(=O)(=O)c2ccc3ccccc3c2)cc1,inactive,–
COc1ccccc1-n1cnc2cc(NC(=O)c3ccco3)ccc21,"inconclusive: 23.1 µM [activator, partial curve, poor fit]",–
COCCCNc1ncnc2nc[nH]c12,inactive,–
Cc1ccsc1/C=N/NC(=O)c1cccs1,"inconclusive: 23.1 µM [activator, partial curve]",–

Compound,Potency,"activity change, negative = inhibition"
Cc1ccc(CNC(=O)CCSCc2ccccc2C)cc1,inactive,–
CC(=O)c1c(C)cc(C)c(CSc2nnc(-c3ccco3)o2)c1C,"inconclusive: 29.1 µM [inhibitor, single point]",–
COc1ccc(NC(=O)CCCn2c(=O)c3sccc3n(Cc3ccc(C)cc3)c2=O)cc1,"inconclusive: 3.66 µM [inhibitor, single point]",–
O=C(Nc1ccccc1C(=O)N1CCCC1)C1CCN(c2ncccn2)CC1,"inconclusive: 32.6 µM [activator, partial curve, poor fit]",–
COc1ccc(C2CC(=O)Oc3c(C(CCN4CCCCC4)c4ccc(N(C)C)cc4)c(OC)cc(OC)c32)cc1 (centres undefined),"inconclusive: 25.9 µM [activator, partial curve, poor fit]",–
Cc1onc(-c2c(F)cccc2Cl)c1C(=O)NC(=S)NCc1cccnc1,inactive,–
O=C(Cc1cc(=O)[nH][nH]1)N/N=C/c1cccc2ccccc12,inactive,–
CCc1nnc(NC(=O)c2ccc(OC)cc2OC)s1,"inconclusive: 0.58 µM [activator, full curve]",–
CCC1(CC)Nc2ccccc2C(=O)N1c1ccc(OC)cc1,"inconclusive: 8.2 µM [activator, partial curve]",–
Cc1cnc(NC(=O)c2ccc(-c3nc4ccccc4s3)o2)s1,"inconclusive: 25.1 µM [inhibitor, single point]",–
COc1ccc(NC(=O)CN(C)C(=O)Cc2c(C)nc3ccccc3c2C)cc1,"inconclusive: 20.6 µM [inhibitor, single point]",–
COc1ccc(-c2cn[nH]c2N)c(OC)c1,"inconclusive: 5.8 µM [inhibitor, partial curve]",–
CCOc1ccc(-c2[nH]ncc2Oc2ccccc2OC)c(O)c1,inactive,–
CCc1cc(Cn2nc(-c3ccccc3)cc2C(=O)NCc2cccc(Br)c2)on1,"inconclusive: 29.1 µM [inhibitor, single point]",–
C=CC[C@H](CC(=O)N(CCO)Cc1ccccc1)C(=O)N[C@@H](COC(=O)[C@H](CC=C)CC(=O)OC(C)(C)C)Cc1c[nH]c2ccccc12,active: 23.1 µM,–
CCc1ccc(-c2cc(C(F)(F)F)n3nc(C(=O)Nc4cnn(Cc5ccc(C)cc5)c4)cc3n2)s1,"inconclusive: 29.1 µM [activator, partial curve, poor fit]",–
Cc1nn2c(N3CCOCC3)cc(C(C)C)nc2c1-c1ccccc1,inactive,–
COc1cc(C2Nc3ccc4ccccc4c3C3=C2C(=O)CC(C)(C)C3)ccc1OC(C)C(=O)O (centres undefined),"inconclusive: 32.6 µM [activator, partial curve, poor fit]",–
CCOC(=O)CN(C(=O)COc1nc(C)cc(C)c1C#N)c1cccc(Cl)c1,"inconclusive: 18.3 µM [inhibitor, partial curve, poor fit]",–
Cc1ccc(S(=O)(=O)N2CCCCC2)cc1C(=O)N1CCCC1,inactive,–
CN(C)S(=O)(=O)N1CCN(CC(O)COc2ccc(C(=O)c3ccccc3)cc2)CC1 (centres undefined),"inconclusive: 5.8 µM [inhibitor, single point]",–
Cc1ccc(C2=NN=C(NC(=O)C(F)(F)F)SC2)cc1,"inconclusive: 10.3 µM [activator, partial curve]",–
Cc1cc(C)cc(OCC(=O)N2N=C(C(F)(F)F)CC2(O)C(C)(C)C)c1 (centres undefined),"inconclusive: 20.6 µM [inhibitor, partial curve, poor fit]",–
